From patent publication US20150307835 (published 2015)
The star is where a group is joined. Cbz = O=C(OCc1ccccc1)*; Boc = CC(C)(C)OC(=O)*; OtBu = CC(C)(C)O*

Assay: general procedure: solution-phase peptide synthesis; 1-ethyl-3-(3-dimethylaminopropyl)carbodiimide / N-hydroxybenzotriazole; pivaloyl
[1] = late stage modification step, surface area

## H-Phe-Glu(OtBu)-Phe-Lys(Boc)-Phe-Glu(OtBu)-Phe-Lys(Boc)-NH—(CH2)3—O—(CH2)2—O—(CH2)2—O—(CH2)3—NHBoc
Late stage modification step
  step yield: 83%
[1]
  crude HPLC purity: 90%

## H3CO—[(CH2)2—O]2—CH2—CO—NH-FEFKFEFK-NH—[(CH2)3—O]2—(CH2)2—NH23HCl
Late stage modification step, HPLC method CH-GS-10, % of surface area
  crude HPLC purity: 84%

## Z-Phe-Glu(OtBu)-Phe-Lys(Boc)-Phe-Glu(OtBu)-Phe-Lys(Boc)-NH—(CH2)3—O—(CH2)2—O—(CH2)2—O—(CH2)3—NHBoc
Conjugation step
  conjugation yield: 87%
Conjugation step, surface area
  crude HPLC purity: 88%

## HOOCCH2OCH2CH2OCH2CH2NC(O)CH2OCH2C(O)-Phe-Glu(OtBu)-Phe-Lys(Boc)-Phe-Glu(OtBu)-Phe-Lys(Boc)-OEt
Conjugation step
  conjugation yield: 94%
Conjugation step, surface area
  crude HPLC purity: 89%

## H-Phe-Glu-Phe-Lys-Phe-Glu-Phe-Lys-NH—(CH2)3—O—(CH2)2—O—(CH2)2—O—(CH2)3—NH2
Late stage modification step
  step yield: 85%
[1]
  crude HPLC purity: 88%

## H2NCH2CH2OCH2CH2OCH2C(O)Phe-Glu-Phe-Lys-Phe-Glu-Phe-Lys-OEt
[1]
  crude HPLC purity: 85%

## Cbz-FE(OtBu)FK(Boc)FE(OtBu)FK(Boc)-OEt
Late stage modification step
  step yield: 84%
[1]
  crude HPLC purity: 97%

## HOOCCH2OCH2CH2OCH2CH2NC(O)CH2OCH2C(O)-Phe-Glu-Phe-Lys-Phe-Glu-Phe-Lys-OEt
Late stage modification step
  step yield: 85%
[1]
  crude HPLC purity: 85%

## HOOC—CH2—O—CH2—C(O)-Phe-Glu(OtBu)-Phe-Lys(Boc)-Phe-Glu(OtBu)-Phe-Lys(Boc)-OEt
Late stage modification step
  step yield: 95%
[1]
  crude HPLC purity: 88%
